Test results taken from PubChem BioAssay AID2449 (National Center for Advancing Translational Sciences (NCATS), 2010).
The source calls these results inconclusive, neither active nor inactive. Calls follow the shape of the full dose curve. Potencies beside an inconclusive call are fits to weak or partial responses and may not hold up.

Chains of the proteins cited; added tags and fusions are not shown.
UniProt P37231, whole entry, looked up: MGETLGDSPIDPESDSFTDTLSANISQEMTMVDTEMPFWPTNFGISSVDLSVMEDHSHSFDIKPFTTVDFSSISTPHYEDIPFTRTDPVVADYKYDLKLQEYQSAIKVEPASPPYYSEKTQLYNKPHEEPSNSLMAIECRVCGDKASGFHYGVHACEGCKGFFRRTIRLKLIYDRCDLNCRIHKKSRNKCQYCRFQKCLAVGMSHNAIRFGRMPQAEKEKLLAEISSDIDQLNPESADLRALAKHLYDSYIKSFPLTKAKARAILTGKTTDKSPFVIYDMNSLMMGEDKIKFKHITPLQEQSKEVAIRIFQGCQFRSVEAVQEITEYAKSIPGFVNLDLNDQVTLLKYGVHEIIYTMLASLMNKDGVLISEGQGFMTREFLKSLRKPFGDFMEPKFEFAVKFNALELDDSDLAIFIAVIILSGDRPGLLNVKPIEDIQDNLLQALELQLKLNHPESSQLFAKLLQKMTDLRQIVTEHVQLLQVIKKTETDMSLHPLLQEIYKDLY

Each compound was assayed against Peroxisome proliferator-activated receptor gamma (Homo sapiens) (UniProt P37231) (assay: PPAR gamma Selectivity Assay For Inhibitors of the Interaction of Thyroid Hormone Receptor and Steroid Receptor Coregulator 2). Conditions: PPARg LBD / Texas Red DRIP-2 peptide, fluorescence polarization, 3 h.
Excerpt: NIH Molecular Libraries Probe Production Network [MLPCN] NIH Chemical Genomics Center [NCGC] MLPCN Grant: DK058080 Assay Provider: R. Kip Guy, St. Jude Children's Research Hospital NCGC Assay Overview: Thyroid receptor (TR) regulates many homeostatic processes including basal metabolism, cardiovascular function, body weight, and lipid trafficking. TR modulators are potential therapeutics for obesity and hyperlipidemias but current thyroid analogs have undesirable side effects, particularly cardiac stimulation. This secondary assay characterized compounds identified in the qHTS for Inhibitors of the Interaction of Thyroid Hormone Receptor and Steroid Receptor Coregulator 2 (PubChem AID 1485) for selectivity against PPAR gamma. […] Small molecule inhibitors that block the interaction of PPAR and DRIP-2 are detected by a decrease in fluorescence polarization. […]
NCGC Assay Protocol Summary: Twenty uL/well 2 uM PPAR gamma and 10 nM Tx-DRIP-2 peptide in protein buffer (20 mM TRIS, pH 7.5, 100 mM NaCl, 0.01% NP-40, 20 uM roziglitazone, and 4% DMSO) was dispensed into black solid 384-well plates (Costar 3710) using a Biomek FX (Beckman Coulter) liquid handling system. […] The plates were read by an Envision (Perkin Elmer) to detect Texas Red polarization of Tx-DRIP-2 (555 nm excitation and 632 nm emission).

SMILES | Potency
CC(=O)c1cccc(NC(=O)C(C)OC(=O)c2ccc(S(C)(=O)=O)c([N+](=O)[O-])c2)c1 (configuration not stated) | inconclusive: 102 µM
CS(=O)(=O)c1ccc(C(=O)OCC(=O)NC(=O)NC2CCCCC2)cc1[N+](=O)[O-] | inconclusive: 97.7 µM
